Data as given in PubChem BioAssay AID1224830 (NIAID, 2016)

- Aim: 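Host factors that control LPS-induced TNF expression in human macrophages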 (primary screen)
- Cells: human THP-1 monocytic leukaemia cells, TNF dual-luciferase reporter clone, PMA-differentiated to macrophage-like cells
- Reagent: siRNA pool against human genes, 50 nM
- Time to read-out: LPS for 4 h, given about 3 days after siRNA transfection
- Treatment: bacterial LPS (TLR4 ligand), 10 ng/ml
- Measurement: 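TNF firefly reporter luminescence divided by renilla, normalised to the plate median, then turned into a robust z-score for each replicate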
- Scale: TNF reporter robust z-score: higher = stronger TNF reporter response to LPS
- Hit rule: 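a well is active when its z-score exceeds 2.8 or falls below -1.5; control wells carry no call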
Shown is an unselected part of about 18,000 reagents. Over the whole deposit, about 2,900 (16%) got an active call. 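Calls are made per well; low scores hint the gene aids the LPS response, high scores that it dampens it.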 The numbers tell different reagents against one gene apart. Repeated entries: four replicate wells of each siRNA pool.

The opening 8 records, ahead of the listing:
| Gene | pool no. | TNF reporter robust z-score | Call |
| --- | --- | --- | --- |
| TRAFD1 (TRAF-type zinc finger domain containing 1) | 1 | 0.34 | inactive |
| TRAFD1 (TRAF-type zinc finger domain containing 1) | 1 | 0.13 | inactive |
| TRAFD1 (TRAF-type zinc finger domain containing 1) | 1 | 1.46 | inactive |
| TRAFD1 (TRAF-type zinc finger domain containing 1) | 1 | 1.16 | inactive |
| ASB18 (ankyrin repeat and SOCS box containing 18) | 1 | 1.42 | inactive |
| ASB18 (ankyrin repeat and SOCS box containing 18) | 1 | 1.36 | inactive |
| ASB18 (ankyrin repeat and SOCS box containing 18) | 1 | -0.19 | inactive |
| ASB18 (ankyrin repeat and SOCS box containing 18) | 1 | 2.55 | inactive |

Results, repeating the preview:
| Gene | pool no. | TNF reporter robust z-score | Call |
| --- | --- | --- | --- |
| TRAFD1 (TRAF-type zinc finger domain containing 1) | 1 | 0.34 | inactive |
| TRAFD1 (TRAF-type zinc finger domain containing 1) | 1 | 0.13 | inactive |
| TRAFD1 (TRAF-type zinc finger domain containing 1) | 1 | 1.46 | inactive |
| TRAFD1 (TRAF-type zinc finger domain containing 1) | 1 | 1.16 | inactive |
| ASB18 (ankyrin repeat and SOCS box containing 18) | 1 | 1.42 | inactive |
| ASB18 (ankyrin repeat and SOCS box containing 18) | 1 | 1.36 | inactive |
| ASB18 (ankyrin repeat and SOCS box containing 18) | 1 | -0.19 | inactive |
| ASB18 (ankyrin repeat and SOCS box containing 18) | 1 | 2.55 | inactive |
| CDC37P1 (cell division cycle 37 pseudogene 1) | 1 | 0.01 | inactive |
| CDC37P1 (cell division cycle 37 pseudogene 1) | 1 | -0.15 | inactive |
| CDC37P1 (cell division cycle 37 pseudogene 1) | 1 | 0.03 | inactive |
| CDC37P1 (cell division cycle 37 pseudogene 1) | 1 | -0.44 | inactive |
| IGF1R (insulin like growth factor 1 receptor) | 1 | -0.52 | inactive |
| IGF1R (insulin like growth factor 1 receptor) | 1 | 0.16 | inactive |
| IGF1R (insulin like growth factor 1 receptor) | 1 | -0.49 | inactive |
| IGF1R (insulin like growth factor 1 receptor) | 1 | 0.44 | inactive |
| BTN2A3P (butyrophilin subfamily 2 member A3, pseudogene) | 1 | -1.84 | active |
| BTN2A3P (butyrophilin subfamily 2 member A3, pseudogene) | 1 | -1.33 | inactive |
| BTN2A3P (butyrophilin subfamily 2 member A3, pseudogene) | 1 | -1.62 | active |
| BTN2A3P (butyrophilin subfamily 2 member A3, pseudogene) | 1 | -0.74 | inactive |
| TSC1 (TSC complex subunit 1) | 1 | -1.16 | inactive |
| TSC1 (TSC complex subunit 1) | 1 | 0.62 | inactive |
| TSC1 (TSC complex subunit 1) | 1 | 1.29 | inactive |
| TSC1 (TSC complex subunit 1) | 1 | 0.46 | inactive |
| RCCD1 (RCC1 domain containing 1) | 1 | 0.17 | inactive |
| RCCD1 (RCC1 domain containing 1) | 1 | 1.07 | inactive |
| RCCD1 (RCC1 domain containing 1) | 1 | -0.54 | inactive |
| RCCD1 (RCC1 domain containing 1) | 1 | -0.16 | inactive |
| ACBD5 (acyl-CoA binding domain containing 5) | 1 | 1.5 | inactive |
| ACBD5 (acyl-CoA binding domain containing 5) | 1 | 1.71 | inactive |
| ACBD5 (acyl-CoA binding domain containing 5) | 1 | 1.29 | inactive |
| ACBD5 (acyl-CoA binding domain containing 5) | 1 | 2.5 | inactive |
| CRISPLD1 (cysteine rich secretory protein LCCL domain containing 1) | 1 | -0.45 | inactive |
| CRISPLD1 (cysteine rich secretory protein LCCL domain containing 1) | 1 | -0.55 | inactive |
| CRISPLD1 (cysteine rich secretory protein LCCL domain containing 1) | 1 | -0.11 | inactive |
| CRISPLD1 (cysteine rich secretory protein LCCL domain containing 1) | 1 | -0.02 | inactive |
| PPARGC1B (PPARG coactivator 1 beta) | 1 | 1.52 | inactive |
| PPARGC1B (PPARG coactivator 1 beta) | 1 | -0.71 | inactive |
| PPARGC1B (PPARG coactivator 1 beta) | 1 | 0.35 | inactive |
| PPARGC1B (PPARG coactivator 1 beta) | 1 | -0.02 | inactive |
| FLG (filaggrin) | 1 | -0.94 | inactive |
| FLG (filaggrin) | 1 | 0 | inactive |
| FLG (filaggrin) | 1 | -1.14 | inactive |
| FLG (filaggrin) | 1 | -0.41 | inactive |
| UBR1 (ubiquitin protein ligase E3 component n-recognin 1) | 1 | -0.17 | inactive |
| UBR1 (ubiquitin protein ligase E3 component n-recognin 1) | 1 | 1.5 | inactive |
| UBR1 (ubiquitin protein ligase E3 component n-recognin 1) | 1 | 1.01 | inactive |
| UBR1 (ubiquitin protein ligase E3 component n-recognin 1) | 1 | 1.73 | inactive |
| TTLL12 (tubulin tyrosine ligase like 12) | 1 | 3.46 | active |
| TTLL12 (tubulin tyrosine ligase like 12) | 1 | 1.58 | inactive |
| TTLL12 (tubulin tyrosine ligase like 12) | 1 | 2.31 | inactive |
| TTLL12 (tubulin tyrosine ligase like 12) | 1 | 0.51 | inactive |
| SNRNP70 (small nuclear ribonucleoprotein U1 subunit 70) | 1 | 0.65 | inactive |
| SNRNP70 (small nuclear ribonucleoprotein U1 subunit 70) | 1 | 3.27 | active |
| SNRNP70 (small nuclear ribonucleoprotein U1 subunit 70) | 1 | 3.15 | active |
| SNRNP70 (small nuclear ribonucleoprotein U1 subunit 70) | 1 | 2.63 | inactive |
| GRM4 (glutamate metabotropic receptor 4) | 1 | 0.7 | inactive |
| GRM4 (glutamate metabotropic receptor 4) | 1 | 1.29 | inactive |
| GRM4 (glutamate metabotropic receptor 4) | 1 | 0.17 | inactive |
| GRM4 (glutamate metabotropic receptor 4) | 1 | 0.54 | inactive |
| ASIC2 (acid sensing ion channel subunit 2) | 1 | -1.51 | active |
| ASIC2 (acid sensing ion channel subunit 2) | 1 | -1.09 | inactive |
| ASIC2 (acid sensing ion channel subunit 2) | 1 | -0.71 | inactive |
| ASIC2 (acid sensing ion channel subunit 2) | 1 | -0.46 | inactive |
| LUZP4 (leucine zipper protein 4) | 1 | -0.82 | inactive |
| LUZP4 (leucine zipper protein 4) | 1 | -0.1 | inactive |
| LUZP4 (leucine zipper protein 4) | 1 | -0.91 | inactive |
| LUZP4 (leucine zipper protein 4) | 1 | -0.61 | inactive |
| TAAR2 (trace amine associated receptor 2) | 1 | -0.69 | inactive |
| TAAR2 (trace amine associated receptor 2) | 1 | -0.3 | inactive |
| TAAR2 (trace amine associated receptor 2) | 1 | 0.4 | inactive |
| TAAR2 (trace amine associated receptor 2) | 1 | 0.19 | inactive |
| SLC44A4 | 1 | -0.17 | inactive |
| SLC44A4 | 1 | 0.02 | inactive |
| SLC44A4 | 1 | -0.22 | inactive |
| SLC44A4 | 1 | -0.68 | inactive |
| LCAT (lecithin-cholesterol acyltransferase) | 1 | -0.46 | inactive |
| LCAT (lecithin-cholesterol acyltransferase) | 1 | 0.38 | inactive |
| LCAT (lecithin-cholesterol acyltransferase) | 1 | 0.66 | inactive |
| UBXN2A (UBX domain protein 2A) | 1 | 4.12 | active |
| UBXN2A (UBX domain protein 2A) | 1 | 5.13 | active |
| UBXN2A (UBX domain protein 2A) | 1 | 5.21 | active |
| UBXN2A (UBX domain protein 2A) | 1 | 3.55 | active |
| TMEM257 (retired record) | 1 | -0.85 | inactive |
| TMEM257 (retired record) | 1 | -0.72 | inactive |
| TMEM257 (retired record) | 1 | -0.71 | inactive |
| TMEM257 (retired record) | 1 | -0.23 | inactive |
| ADAMTS17 (ADAM metallopeptidase with thrombospondin type 1 motif 17) | 1 | -0.32 | inactive |
| ADAMTS17 (ADAM metallopeptidase with thrombospondin type 1 motif 17) | 1 | -0.52 | inactive |
| ADAMTS17 (ADAM metallopeptidase with thrombospondin type 1 motif 17) | 1 | -0.7 | inactive |
| ADAMTS17 (ADAM metallopeptidase with thrombospondin type 1 motif 17) | 1 | -0.76 | inactive |
| PEPD (peptidase D) | 1 | 0.71 | inactive |
| PEPD (peptidase D) | 1 | 2.69 | inactive |
| PEPD (peptidase D) | 1 | 0.83 | inactive |
| PEPD (peptidase D) | 1 | 0.41 | inactive |
| MYH11 (myosin heavy chain 11) | 1 | -0.48 | inactive |
| MYH11 (myosin heavy chain 11) | 1 | 0.12 | inactive |
| MYH11 (myosin heavy chain 11) | 1 | -0.53 | inactive |
| MYH11 (myosin heavy chain 11) | 1 | -0.04 | inactive |
| NDUFS7 (NADH:ubiquinone oxidoreductase core subunit S7) | 1 | -1.31 | inactive |
| NDUFS7 (NADH:ubiquinone oxidoreductase core subunit S7) | 1 | -0.88 | inactive |
| NDUFS7 (NADH:ubiquinone oxidoreductase core subunit S7) | 1 | -0.95 | inactive |
| NDUFS7 (NADH:ubiquinone oxidoreductase core subunit S7) | 1 | -0.55 | inactive |
| SNX29 (sorting nexin 29) | 1 | 0.01 | inactive |
| SNX29 (sorting nexin 29) | 1 | -0.78 | inactive |
| SNX29 (sorting nexin 29) | 1 | -0.09 | inactive |
| SNX29 (sorting nexin 29) | 1 | 0.84 | inactive |
| SNX29 (sorting nexin 29) | 2 | -0.5 | inactive |
| SNX29 (sorting nexin 29) | 2 | -0.44 | inactive |
| SNX29 (sorting nexin 29) | 2 | 0.1 | inactive |
| SNX29 (sorting nexin 29) | 2 | -0.71 | inactive |
| NIBAN2 (niban apoptosis regulator 2) | 1 | -0.09 | inactive |
| NIBAN2 (niban apoptosis regulator 2) | 1 | -0.24 | inactive |
| NIBAN2 (niban apoptosis regulator 2) | 1 | 1.01 | inactive |
| NIBAN2 (niban apoptosis regulator 2) | 1 | 1.06 | inactive |
| UBXN6 (UBX domain protein 6) | 1 | 3.11 | active |
| UBXN6 (UBX domain protein 6) | 1 | 2.53 | inactive |
| UBXN6 (UBX domain protein 6) | 1 | 2.71 | inactive |
| UBXN6 (UBX domain protein 6) | 1 | 1.69 | inactive |
| ENTPD2 (ectonucleoside triphosphate diphosphohydrolase 2) | 1 | -1 | inactive |
| ENTPD2 (ectonucleoside triphosphate diphosphohydrolase 2) | 1 | -0.9 | inactive |
| ENTPD2 (ectonucleoside triphosphate diphosphohydrolase 2) | 1 | -0.18 | inactive |
| ENTPD2 (ectonucleoside triphosphate diphosphohydrolase 2) | 1 | -0.65 | inactive |
| ERMN (ermin) | 1 | 1.79 | inactive |
| ERMN (ermin) | 1 | 2.15 | inactive |
| ERMN (ermin) | 1 | 1.43 | inactive |
| ERMN (ermin) | 1 | -0.44 | inactive |
| AGO2 (argonaute RISC catalytic component 2) | 1 | 0.88 | inactive |
| AGO2 (argonaute RISC catalytic component 2) | 1 | 0.82 | inactive |
| AGO2 (argonaute RISC catalytic component 2) | 1 | 0.57 | inactive |
| AGO2 (argonaute RISC catalytic component 2) | 1 | 1.16 | inactive |
| SLC25A25 | 1 | -0.14 | inactive |
| SLC25A25 | 1 | -0.38 | inactive |
| SLC25A25 | 1 | -0.28 | inactive |
| SLC25A25 | 1 | -0.77 | inactive |
| OR3A4P (olfactory receptor family 3 subfamily A member 4 pseudogene) | 1 | -1.06 | inactive |
| OR3A4P (olfactory receptor family 3 subfamily A member 4 pseudogene) | 1 | -0.99 | inactive |
| OR3A4P (olfactory receptor family 3 subfamily A member 4 pseudogene) | 1 | -1.01 | inactive |
| OR3A4P (olfactory receptor family 3 subfamily A member 4 pseudogene) | 1 | -0.88 | inactive |
| LIN28B (lin-28 RNA binding posttranscriptional regulator B) | 1 | -1.01 | inactive |
| LIN28B (lin-28 RNA binding posttranscriptional regulator B) | 1 | -0.18 | inactive |
| LIN28B (lin-28 RNA binding posttranscriptional regulator B) | 1 | -0.75 | inactive |
| LIN28B (lin-28 RNA binding posttranscriptional regulator B) | 1 | -0.49 | inactive |
